# No constants are given. Whether binding was seen depends on the method and setting. Some results given as binding are weak or reduced against the parent protein; the word gives no strength.
# B1: H2/L2-18 scFv (scFv)
# scFv: QAQLQGSGGGVVQPGRSLRLSCAASGFTFSSYGMHWVRQAPGKGLEWVAVISYKGSHKYYADSVKGRFTISRDNSKNTLYLQMNSLRAEDTAVYYCGGSGYALHDDYYGLDVWGQGTLVTVSSSGGGGSGGGGSGGGGSGGGGSQSALTQPASVSGSPGQSITISCTGTSSDVGGYNYVSWYQQHPGKAPKLMIYDVSNRPWGVSNRFSGSKFGNTASLTISGLQAEDEADYYCSSYTSSSTLYVFGSGTKVTVL
# B2: H2/L2-20 scFv (scFv)
# scFv: QAQLQSSGGGVVQPGRSLRLSCAASGFTVSSYGMHWVRQAPGKGLEWVAVISYTGSNKYYADSVKGRFTISRDNSKNTLYLQMNSLRAEDTAVYYCGGSGYALHDDYYGLDVWGQGTLVTVSSSGGGGSGGGGSGGGGSGGGGSQSALTQPASVSGSPGQSITISCTGTSSDVGGYNYVSWYQQHPGKAPKLMIYDVSNRLRGVSNRFSGSKFGNTASLTISGLQAEDEADYYCSSYTSSSALYVFGSGTKVTVL
# B3: H2/L2-68 scFv (scFv)
# scFv: QAQLQSSEGGVVQPGRSLRLSCAASGFTFSSYGMHWVRQAPGKGLEWVAVISYRGFNKYYADSVKGRFTISRDNSKNTLYLQMNSLRAEDTAVYYCGGSGYALHDDYYGQDVWGQGTLVTVSSSGGGGSGGGGSGGGGSGGGGSQSALTQPASVSGSPGQSITISCTGTSSDVGGYNYVSWYQQHPGKAPKLMIYDVSNRLSGVSNRFSGSKFGNTASLTISGLQAEDEADYYCSSYTSSSTLYVFGSGTKVTVL
# B4: H2/L2-80 scFv (scFv)
# scFv: QVQLQSSGGGVVQPGRSLRLSCAASGFTFSSYGMHWVRQAPGKGLEWVAVISYTGSNKYYADSVKGRFTISRDNSKNTLYLQMNSLRAEDTAVYYCGGSGYALHDDYYGLDVWGQGTLVTVSSSGGGGSGGGGSGGGGSGGGGSQSALTQPASVSGSPGQSITISCTGTSSDVGGYNYVSWYQQHPGKAPKLMIYDVSNRAWGVSNRFSGSKFGNTASLTISGLQAEDEADYYCSSYTSSSALYVFGSGTKVTVL
# B5: H2/L2-83 scFv (scFv)
# scFv: QAQLQGSGGGVVQPGRSLRLSCAASGFTFSSYGMHWVRQAPGKGLEWVAVISYKGSNKYYADSVKGRFTISRDNSKNTLYLQMNSLRAEDTAVYYCGGSGYALHDDYYGLDVWGQGTLVTVSSSGGGGSGGGGSGGGGSGGGGSQSALTQPASVSGSPGQSITISCTGTSSDVGGYNYVSWYQQHPGKAPKLMIYEVSNRLRGVSNRFSGSKFGNTASLTISGLQAEDEADYYCSSYTSSSTLYVFGSGTKVTVL
# B6: H2/L2-88 scFv (scFv)
# scFv: QVQLQSSEGGVVQPGRSLRLSCAASGFTFSSYGMHWVRQAPGKGLEWVAVISYKGSNKYYADSVKGRFTISRDNSKNTLYLQMNSLRAEDTAVYYCGGSGYALHDDYYGLDVWGQGTLVTVSSSGGGGSGGGGSGGGGSGGGGSQSALTQPASVSGSPGQSITISCTGTSSDVGGYNYVSWYQQHPGKAPKLMIYEVSNRLRGVSNRFSGSKFGNTASLTISGLQAEDEADYYCSSYTSSSALYVFGSGTKVTVL
# B7: H2/L2-47 scFv (scFv)
# scFv: QVQLQSSEGGVVQPGRSLRLSCAASGFTFSSYGMHWVRQAPGKGLEWVAVISYKGSNKYYADSVKGRFTISRDNSKNTLYLQMNSLRAEDTAVYYCGGSGYALHDDYYGLDVWGQGTLVTVSSSGGGGSGGGGSGGGGSGGGGSQSALTQPASVSGSPGQSITISCTGTSSDVGGYNYVSWYQQHPGKAPKLMIYDVSNRPWGVSNRFSGSKFGNTASLTISGLQAEDEADYYCSSYTSSSTLYVFGSGTKVTVL
# B8: H2/L2-36 scFv (scFv)
# scFv: QAQLQSSGGGVVQPGRSLRLSCAASGFTFSSYGMHWVRQAPGKGLEWVAVISYKGSNKYYADSVKGRFTISRDNSKNTLYLQMNSLRAEDTAVYYCGGSGYALHDDYYGLDVWGQGTLVTVSSSGGGGSGGGGSGGGGSGGGGSQSALTQPASVSGSPGQSITISCTGTSSDVGGYNYVSWYQQHPGKAPKLMIYEVSNRLRGVSNRFSGSKFGNTASLTISGLQAEDEADYYCSSYTSSSTLYVFGSGTKVTVL
# B9: H2/L2-34 scFv (scFv)
# scFv: QVQLQDSEGGVVQPGRSLRLSCAASGFTFSSYGMHWVRQAPGKGLEWVAVISYTGTKKYYADSVKGRFTISRDNSKNTLYLQMNSLRAEDTAVYYCGGSGYALHDDYYGLDVWGQGTLVTVSSSGGGGSGGGGSGGGGSGGGGSQSALTQPASVSGSPGQSITISCTGTSSDVGGYNYVSWYQQHPGKAPKLMIYDVSNRPWGVSNRFSGSKFGNTASLTISGLQAEDEADYYCSSYTSSSALYVFGSGTKVTVM
# B10: PI-61 (monoclonal phage clone) (protein)
# VH: QVQLQESGGGVVQPGRSLRLSCAASGFTFSSYGMHWVRQAPGKGLEWVAVISYDGSNKYYADSVKGRFTISRDNSKNTLYLQMNSLRAEDTAVYYCGGSGYALHDDYYGLDVWGQGTLVTVSS
# VL: QSALTQPASVSGSPGQSITISCTGTSSDVGGYNYVSWYQQHPGKAPKLMIYDVSNRPSGVSNRFSGSKSGNTASLTISGLQAEDEADYYCSSYTSSSTLYVFGSGTKVTVL
# Biological target: Cyno BCMA APP-Avi (cynomolgus)
# Experiment: flow cytometry, yeast-displayed scFv labelled with biotinylated cyno BCMA at 20 nM, 900 pM or none
row,Binder,binding
1,B1,binds
2,B2,binds
3,B3,binds
4,B4,binds
5,B5,binds
6,B6,binds
7,B7,binds
8,B8,binds
9,B9,binds

# Biological target: biotinylated human IgG1 Fc (Jackson Immunoresearch cat #009-060-008) (human) [IgG part: P01857]
# Experiment: monoclonal phage ELISA, anti-M13-HRP, Abs450 against fold dilution of phage
row,Binder,binding
1,B10,no binding (tested: fold dilution 1 (undiluted phage))

# Reference: US20190367628A1
